Laboratory results reported in PubChem BioAssay AID248 (DTP/NCI, 2004).
The list does not hold the whole screen: it gathers tests that were run many times, whatever their T/C, doses with no T/C, and many T/C values between a quarter and a half above the control. Other doses and runs of a compound stand elsewhere. T/C is the treated group as % of the vehicle group. Some entries give survivors of the animals treated and no T/C: the source holds a T/C of zero for them, seemingly a mark for toxic or unscored doses. Some survivor counts are full or nearly so, which does not show that the dose was tolerated: the source hardly ever lists a survival T/C far under the control, and the zero likely stands for such cases as well. Counts of survivors are from the toxicity check (mostly the fifth day) where no day follows; animals may have died later. Schedules are NCI's codes, taken here to give the interval after Q, in days (D) or hours (H), and the number of doses after X. Some entries were tested several times; their values stand side by side, smallest first. Counts like (3×) say how often a value occurs here. For survival time, this PubChem deposit counts one and a half times the control or more as active, and values a quarter to a half above the control carry no call in these data; other NCI protocols may use other cut-offs. Some T/C values are followed by the survivors on the day toxicity was checked, most often the fifth; where none is given, no animal had died by that day. Some schedule codes hold Z or #, which are not explained here.

Test system: L1210 leukemia ip in BDF1 mice, survival T/C
Experiment: NCI In Vivo Anticancer Drug Screen. Data for tumor model L1210 Leukemia (intraperitoneal) in B6D2F1 (BDF1) mice
Conditions: T/C endpoint: median survival time, higher T/C = longer survival
[1] = dose: 16.0 mg/kg/injection, schedule: Q01DX009 (ip), vehicle: saline
[2] = dose: 40.0 mg/kg/injection, schedule: Q04DX003 (ip), vehicle: saline

## N[C@@H](Cc1ccc(N(CCCl)CCCl)cc1)C(=O)O
dose: 1.0 mg/kg/injection, schedule: Q01DX009 (ip), vehicle: saline, evaluated on day 30
  T/C: 137 % of control
dose: 1.0 mg/kg/injection, schedule: Q01DX009 (ip), vehicle: saline, evaluated on day 33
  T/C: 131 [6 of 8 alive], 143, 153 % of control
dose: 2.0 mg/kg/injection, schedule: Q01DX009 (ip), vehicle: saline, evaluated on day 5
  T/C: 106, 142, 167, 169, 174 % of control
dose: 2.0 mg/kg/injection, schedule: Q01DX009 (ip), vehicle: saline, evaluated on day 24
  T/C: 106 % of control [9 of 10 alive]
dose: 2.0 mg/kg/injection, schedule: Q01DX009 (ip), vehicle: saline, evaluated on day 30
  T/C: 142 % of control
dose: 2.0 mg/kg/injection, schedule: Q01DX009 (ip), vehicle: saline, evaluated on day 33
  T/C: 168, 169, 175 % of control
dose: 2.5 mg/kg/injection, schedule: Q01DX001 (ip), vehicle: Klucel (hydroxypropylcellulose) (HPC), evaluated on day 5
  T/C: 138 % of control
dose: 2.5 mg/kg/injection, schedule: Q01DX001 (ip), vehicle: Klucel (hydroxypropylcellulose) (HPC), evaluated on day 60
  T/C: 133 and 138 % of control
dose: 2.5 mg/kg/injection, schedule: Q01DX001 (ip), vehicle: saline, evaluated on day 5
  T/C: 116, 122, 133, 141 % of control
dose: 2.5 mg/kg/injection, schedule: Q01DX001 (ip), vehicle: saline, evaluated on day 7
  T/C: 107, 112, 127 % of control
dose: 2.5 mg/kg/injection, schedule: Q01DX001 (ip), vehicle: saline, evaluated on day 30
  T/C: 116 and 133 % of control
dose: 2.5 mg/kg/injection, schedule: Q01DX001 (ip), vehicle: saline, evaluated on day 31
  T/C: 141 % of control
dose: 2.5 mg/kg/injection, schedule: Q01DX001 (ip), vehicle: saline, evaluated on day 60
  T/C: 122 % of control
dose: 2.5 mg/kg/injection, schedule: Q01DX001 (ip), vehicle: saline, evaluated on day 62
  T/C: 127 % of control
dose: 2.5 mg/kg/injection, schedule: Q01DX001 (ip), vehicle: saline, evaluated on day 63
  T/C: 107 [7 of 8 alive] and 112 % of control
dose: 2.5 mg/kg/injection, schedule: Q04DX003 (ip), vehicle: saline, evaluated on day 5
  T/C: 135 and 142 % of control
dose: 2.5 mg/kg/injection, schedule: Q04DX003 (ip), vehicle: saline, evaluated on day 30
  T/C: 142 % of control
dose: 2.5 mg/kg/injection, schedule: Q04DX003 (ip), vehicle: saline, evaluated on day 60
  T/C: 135 % of control
dose: 2.5 mg/kg/injection, schedule: Q##DX001 (ip), vehicle: Klucel (hydroxypropylcellulose) (HPC)
  T/C: 133 % of control
dose: 4.0 mg/kg/injection, schedule: Q01DX009 (ip), vehicle: saline, evaluated on day 5
  T/C: 143, 144, 158, 161, 163 % of control
dose: 4.0 mg/kg/injection, schedule: Q01DX009 (ip), vehicle: saline, evaluated on day 24
  T/C: 163 % of control
dose: 4.0 mg/kg/injection, schedule: Q01DX009 (ip), vehicle: saline, evaluated on day 30
  T/C: 161 % of control
dose: 4.0 mg/kg/injection, schedule: Q01DX009 (ip), vehicle: saline, evaluated on day 33
  T/C: 144 (2×) and 158 % of control
dose: 5.0 mg/kg/injection, schedule: Q01DX001 (ip), vehicle: Klucel (hydroxypropylcellulose) (HPC)
  T/C: 146 % of control
dose: 5.0 mg/kg/injection, schedule: Q01DX001 (ip), vehicle: saline, evaluated on day 5
  T/C: 125, 130, 140, 141 (2×), 145 % of control (2×)
dose: 5.0 mg/kg/injection, schedule: Q01DX001 (ip), vehicle: saline, evaluated on day 7
  T/C: 116, 117, 153 % of control
dose: 5.0 mg/kg/injection, schedule: Q01DX001 (ip), vehicle: saline, evaluated on day 30
  T/C: 140 and 141 % of control
dose: 5.0 mg/kg/injection, schedule: Q01DX001 (ip), vehicle: saline, evaluated on day 31
  T/C: 145 % of control
dose: 5.0 mg/kg/injection, schedule: Q01DX001 (ip), vehicle: saline, evaluated on day 33
  T/C: 130 % of control
dose: 5.0 mg/kg/injection, schedule: Q01DX001 (ip), vehicle: saline, evaluated on day 47
  T/C: 145 % of control
dose: 5.0 mg/kg/injection, schedule: Q01DX001 (ip), vehicle: saline, evaluated on day 60
  T/C: 125 and 141 % of control
dose: 5.0 mg/kg/injection, schedule: Q01DX001 (ip), vehicle: saline, evaluated on day 62
  T/C: 153 % of control
dose: 5.0 mg/kg/injection, schedule: Q01DX001 (ip), vehicle: saline, evaluated on day 63
  T/C: 116 and 117 % of control
dose: 5.0 mg/kg/injection, schedule: Q04DX003 (ip), vehicle: saline, evaluated on day 5
  T/C: 151 and 162 % of control
dose: 5.0 mg/kg/injection, schedule: Q04DX003 (ip), vehicle: saline, evaluated on day 30
  T/C: 162 % of control
dose: 5.0 mg/kg/injection, schedule: Q04DX003 (ip), vehicle: saline, evaluated on day 60
  T/C: 151 % of control
dose: 5.0 mg/kg/injection, schedule: Q##DX001 (ip), vehicle: Klucel (hydroxypropylcellulose) (HPC)
  T/C: 146 % of control
dose: 6.0 mg/kg/injection, schedule: Q01DX009 (ip), vehicle: saline
  survivor count: 8 of 8
dose: 8.0 mg/kg/injection, schedule: Q01DX009 (ip), vehicle: saline, evaluated on day 5
  T/C: 83, 93, 98, 108 % of control
dose: 8.0 mg/kg/injection, schedule: Q01DX009 (ip), vehicle: saline, evaluated on day 24
  T/C: 108 % of control
dose: 8.0 mg/kg/injection, schedule: Q01DX009 (ip), vehicle: saline, evaluated on day 30
  T/C: 93 % of control
dose: 8.0 mg/kg/injection, schedule: Q01DX009 (ip), vehicle: saline, evaluated on day 33
  T/C: 98 % of control
dose: 8.0 mg/kg/injection, schedule: Q01DX009 (ip), vehicle: saline
  survivor count: 8 of 8
dose: 10.0 mg/kg/injection, schedule: Q01DX001 (ip), vehicle: saline, evaluated on day 5
  T/C: 140, 152, 157 (2×), 159, 161, 170 % of control
dose: 10.0 mg/kg/injection, schedule: Q01DX001 (ip), vehicle: saline, evaluated on day 7
  T/C: 133, 144, 195 % of control
dose: 10.0 mg/kg/injection, schedule: Q01DX001 (ip), vehicle: saline, evaluated on day 30
  T/C: 152 and 157 % of control
dose: 10.0 mg/kg/injection, schedule: Q01DX001 (ip), vehicle: saline, evaluated on day 31
  T/C: 170 % of control
dose: 10.0 mg/kg/injection, schedule: Q01DX001 (ip), vehicle: saline, evaluated on day 33
  T/C: 159 % of control
dose: 10.0 mg/kg/injection, schedule: Q01DX001 (ip), vehicle: saline, evaluated on day 47
  T/C: 157 % of control
dose: 10.0 mg/kg/injection, schedule: Q01DX001 (ip), vehicle: saline, evaluated on day 60
  T/C: 140 and 161 % of control
dose: 10.0 mg/kg/injection, schedule: Q01DX001 (ip), vehicle: saline, evaluated on day 62
  T/C: 195 % of control
dose: 10.0 mg/kg/injection, schedule: Q01DX001 (ip), vehicle: saline, evaluated on day 63
  T/C: 133 and 144 % of control
dose: 10.0 mg/kg/injection, schedule: Q04DX003 (ip), vehicle: saline, evaluated on day 5
  T/C: 131 and 207 % of control
dose: 10.0 mg/kg/injection, schedule: Q04DX003 (ip), vehicle: saline, evaluated on day 30
  T/C: 131 % of control
dose: 10.0 mg/kg/injection, schedule: Q04DX003 (ip), vehicle: saline, evaluated on day 60
  T/C: 207 % of control
[1]
  T/C: 60 and 61 % of control
  survivor count: 6 of 8 and 7 of 8
dose: 20.0 mg/kg/injection, schedule: Q01DX001 (ip), vehicle: Klucel (hydroxypropylcellulose) (HPC), evaluated on day 5
  T/C: 134 % of control
dose: 20.0 mg/kg/injection, schedule: Q01DX001 (ip), vehicle: Klucel (hydroxypropylcellulose) (HPC), evaluated on day 60
  T/C: 134 % of control [7 of 10 alive]
dose: 20.0 mg/kg/injection, schedule: Q01DX001 (ip), vehicle: Klucel (hydroxypropylcellulose) (HPC)
  survivor count: 5 of 10
dose: 20.0 mg/kg/injection, schedule: Q01DX001 (ip), vehicle: saline, evaluated on day 5
  T/C: 70, 72, 97, 135, 164, 170, 178 % of control
dose: 20.0 mg/kg/injection, schedule: Q01DX001 (ip), vehicle: saline, evaluated on day 7
  T/C: 145, 184, 186 % of control
dose: 20.0 mg/kg/injection, schedule: Q01DX001 (ip), vehicle: saline, evaluated on day 30
  T/C: 97 and 164 % of control [6 of 8 alive]
dose: 20.0 mg/kg/injection, schedule: Q01DX001 (ip), vehicle: saline, evaluated on day 33
  T/C: 178 % of control
dose: 20.0 mg/kg/injection, schedule: Q01DX001 (ip), vehicle: saline, evaluated on day 60
  T/C: 135 % of control
dose: 20.0 mg/kg/injection, schedule: Q01DX001 (ip), vehicle: saline, evaluated on day 62
  T/C: 184 % of control [6 of 8 alive]
dose: 20.0 mg/kg/injection, schedule: Q01DX001 (ip), vehicle: saline, evaluated on day 63
  T/C: 145 and 186 % of control
dose: 20.0 mg/kg/injection, schedule: Q01DX001 (ip), vehicle: saline
  survivor count: 5 of 8 and 6 of 8 (2×)
dose: 20.0 mg/kg/injection, schedule: Q04DX003 (ip), vehicle: saline, evaluated on day 5
  T/C: 75 and 91 % of control
dose: 20.0 mg/kg/injection, schedule: Q04DX003 (ip), vehicle: saline, evaluated on day 60
  T/C: 91 % of control
dose: 20.0 mg/kg/injection, schedule: Q04DX003 (ip), vehicle: saline
  survivor count: 6 of 8
dose: 40.0 mg/kg/injection, schedule: Q01DX001 (ip), vehicle: Klucel (hydroxypropylcellulose) (HPC)
  survivor count: 2 of 10 and 5 of 10
dose: 40.0 mg/kg/injection, schedule: Q01DX001 (ip), vehicle: saline, evaluated on day 5
  T/C: 58, 60, 61 (2×), 62, 170 % of control
dose: 40.0 mg/kg/injection, schedule: Q01DX001 (ip), vehicle: saline, evaluated on day 7
  T/C: 71, 80, 99 % of control
dose: 40.0 mg/kg/injection, schedule: Q01DX001 (ip), vehicle: saline, evaluated on day 33
  T/C: 170 % of control
dose: 40.0 mg/kg/injection, schedule: Q01DX001 (ip), vehicle: saline, evaluated on day 63
  T/C: 99 % of control
dose: 40.0 mg/kg/injection, schedule: Q01DX001 (ip), vehicle: saline
  survivor count: 2 of 8, 3 of 8, 4 of 8 (2×), 5 of 8, 6 of 8, 7 of 8
[2]
  T/C: 55 and 61 % of control
  survivor count: 3 of 8 and 6 of 8
dose: 80.0 mg/kg/injection, schedule: Q01DX001 (ip), vehicle: saline
  survivor count: 1 of 8
